The list does not hold the whole screen: it gathers tests that were run many times, whatever their T/C, doses with no T/C, and many T/C values between a quarter and a half above the control. Other doses and runs of a compound stand elsewhere. T/C is the treated group as % of the vehicle group. Some entries give survivors of the animals treated and no T/C: the source holds a T/C of zero for them, seemingly a mark for toxic or unscored doses. Some doses without a T/C left all or most animals alive at the check, yet need not have been tolerated: survival well below the control is almost never listed, so the zero probably covers shortened survival too. Counts of survivors are from the toxicity check (mostly the fifth day) where no day follows; animals may have died later. Schedules are NCI's codes, taken here to give the interval after Q, in days (D) or hours (H), and the number of doses after X. Some entries hold several experiments; their values stand side by side, smallest first. Where survival is the endpoint, this PubChem deposit counts one and a half times the control or more as active, and values a quarter to a half above the control carry no call in these data; other NCI protocols may use other cut-offs. Some T/C values are followed by the survivors on the day toxicity was checked, most often the fifth; without a count, all were alive then.
Test system: BDF1 mice, P388 leukemia ip, median survival T/C
Assay: NCI In Vivo Anticancer Drug Screen. Data for tumor model P388 Leukemia (intraperitoneal) in B6D2F1 (BDF1) mice
Conditions: T/C endpoint: median survival time, higher T/C = longer survival
In short: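 Antitumour effect was judged in vivo: survival in drug-treated mice, normalised to that of vehicle-dosed controls, gives the reported T/C.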

[1] = dose: 100.0 mg/kg/injection, schedule: Q04DX003 (ip), vehicle: Klucel (hydroxypropylcellulose) (HPC)
[2] = dose: 200.0 mg/kg/injection, schedule: Q04DX003 (ip), vehicle: Klucel (hydroxypropylcellulose) (HPC)
[3] = dose: 200.0 mg/kg/injection, schedule: Q01DX009 (ip), vehicle: Klucel (hydroxypropylcellulose) (HPC)
[4] = dose: 25.0 mg/kg/injection, schedule: Q01DX009 (ip), vehicle: saline with Tween-80
[5] = dose: 25.0 mg/kg/injection, schedule: Q01DX009 (ip), vehicle: saline
[6] = dose: 100.0 mg/kg/injection, schedule: Q01DX009 (ip), vehicle: saline with Tween-80
[7] = dose: 50.0 mg/kg/injection, schedule: Q01DX009 (ip), vehicle: water
[8] = dose: 100.0 mg/kg/injection, schedule: Q01DX009 (ip), vehicle: Klucel (hydroxypropylcellulose) (HPC)
[9] = dose: 400.0 mg/kg/injection, schedule: Q01DX009 (ip), vehicle: Klucel (hydroxypropylcellulose) (HPC)
[10] = dose: 25.0 mg/kg/injection, schedule: Q01DX009 (ip), vehicle: Klucel (hydroxypropylcellulose) (HPC)
[11] = dose: 200.0 mg/kg/injection, schedule: Q01DX009 (ip), vehicle: saline with Tween-80

## N#CSc1ccc(Nc2ccc(SC#N)cc2)cc1
dose: 55.0 mg/kg/injection, schedule: Q01DX009 (ip), vehicle: Klucel (hydroxypropylcellulose) (HPC)
  T/C: 133 % of control
dose: 80.0 mg/kg/injection, schedule: Q01DX009 (ip), vehicle: Klucel (hydroxypropylcellulose) (HPC)
  T/C: 133 % of control

## CC1=CC2=NC(=O)C(c3ccccc3)C(=O)N2C=C1 (stereo unspecified)
[1]
  survivor count: 6 of 6
[2]
  survivor count: 6 of 6

## O=S(=O)(NC(=S)Nc1ccc(Cl)cc1)c1ccccc1
[3]
  survivor count: 6 of 6

## NC(=S)c1cncnc1N
dose: 200.0 mg/kg/injection, schedule: Q04DX003 (ip), vehicle: saline with Tween-80
  survivor count: 0 of 6
dose: 400.0 mg/kg/injection, schedule: Q04DX003 (ip), vehicle: saline with Tween-80
  survivor count: 0 of 6

## ClC1=NC(Cl)C(Cl)=N/C1=N\c1ncn[nH]1 (stereo unspecified)
dose: 11.0 mg/kg/injection, schedule: Q01DX009 (ip), vehicle: saline with Tween-80
  T/C: 133 % of control
dose: 12.5 mg/kg/injection, schedule: Q01DX009 (ip), vehicle: saline with Tween-80
  T/C: 135 % of control
dose: 12.5 mg/kg/injection, schedule: Q04DX003 (ip), vehicle: saline with Tween-80
  T/C: 125 % of control
dose: 16.5 mg/kg/injection, schedule: Q01DX009 (ip), vehicle: saline with Tween-80
  T/C: 133 % of control
dose: 22.0 mg/kg/injection, schedule: Q04DX003 (ip), vehicle: saline with Tween-80
  T/C: 127 % of control
[4]
  T/C: 133 and 140 % of control
dose: 25.0 mg/kg/injection, schedule: Q04DX003 (ip), vehicle: saline with Tween-80
  T/C: 135 % of control
dose: 37.5 mg/kg/injection, schedule: Q01DX009 (ip), vehicle: saline with Tween-80
  T/C: 138 % of control
dose: 50.0 mg/kg/injection, schedule: Q04DX003 (ip), vehicle: saline with Tween-80
  T/C: 127 and 130 % of control [5 of 6 alive]
dose: 75.0 mg/kg/injection, schedule: Q04DX003 (ip), vehicle: saline with Tween-80
  survivor count: 6 of 6

## O=C1NC2(CCCCC2)C(=O)N1CCN(CCCl)CCCl
[5]
  survivor count: 2 of 6

## CC1(C)N=C(N)N=C(N)N1c1ccc(Cl)c(Cl)c1
dose: 9.9 mg/kg/injection, schedule: Q01DX009 (ip), vehicle: Klucel (hydroxypropylcellulose) (HPC)
  T/C: 136 % of control
dose: 10.7 mg/kg/injection, schedule: Q01DX009 (ip), vehicle: Klucel (hydroxypropylcellulose) (HPC)
  T/C: 145 % of control
dose: 60.0 mg/kg/injection, schedule: Q01DX009 (ip), vehicle: Klucel (hydroxypropylcellulose) (HPC)
  survivor count: 5 of 6
dose: 60.0 mg/kg/injection, schedule: Q04DX003 (ip), vehicle: Klucel (hydroxypropylcellulose) (HPC)
  T/C: 140 % of control
dose: 80.0 mg/kg/injection, schedule: Q04DX003 (ip), vehicle: Klucel (hydroxypropylcellulose) (HPC)
  survivor count: 2 of 6

## O=C(O)CNC(=O)Nc1ccccc1
dose: 100.0 mg/kg/injection, schedule: Q04DX003 (ip), vehicle: saline with Tween-80
  survivor count: 6 of 6

## C[N+](C)(C)CCCC[N+](C)(C)C
dose: 400.0 mg/kg/injection, schedule: Q01DX009 (ip), vehicle: saline
  survivor count: 0 of 6
dose: 400.0 mg/kg/injection, schedule: Q04DX003 (ip), vehicle: saline
  survivor count: 2 of 6

## Cn1ncc2c(NCCc3ccccc3)ncnc21
[6]
  survivor count: 3 of 6

## CCC12C=CCN3CCC4(c5ccc(OC)cc5N(C)C4C(O)(C(=O)OC)C1OC(C)=O)C32 (stereo unspecified) (tested in a mixture with another compound)
dose: 0.5 mg/kg/injection, schedule: Q01DX009 (ip), vehicle: water
  survivor count: 5 of 6

## [NH-]C(CC(N)=O)C(=O)O.[NH-]C(CC(N)=O)C(=O)O.[Ni+2] (stereo unspecified)
dose: 25.0 mg/kg/injection, schedule: Q01DX009 (ip), vehicle: water
  survivor count: 5 of 6
[7]
  survivor count: 3 of 6

## CN(C)c1ccc(/C=C/c2ccnc3ccc(Cl)cc23)cc1
[6]
  T/C: 133 % of control

## Cc1ccc(NCN2C(=O)NC(c3ccccc3)(c3ccccc3)C2=O)cc1
dose: 400.0 mg/kg/injection, schedule: Q01DX001 (ip), vehicle: saline with Tween-80
  survivor count: 3 of 5

## O=S(=O)(O)c1ccc(-c2ccccc2)cc1
[8]
  survivor count: 5 of 6
[3]
  survivor count: 5 of 6
[2]
  survivor count: 6 of 6
[9]
  survivor count: 0 of 6
dose: 400.0 mg/kg/injection, schedule: Q04DX003 (ip), vehicle: Klucel (hydroxypropylcellulose) (HPC)
  survivor count: 5 of 6

## COc1cccc2c1C(=O)c1c(O)c(COC3CC(N)C(O)C(C)O3)cc(O)c1C2=O (stereo unspecified)
[7]
  survivor count: 3 of 3
dose: 100.0 mg/kg/injection, schedule: Q01DX009 (ip), vehicle: water
  survivor count: 0 of 3
dose: 200.0 mg/kg/injection, schedule: Q01DX009 (ip), vehicle: water
  survivor count: 0 of 3

## CCCCC(CC)COC(=O)/C=C/C(=O)OCC(CC)CCCC (stereo unspecified)
[9]
  survivor count: 6 of 6

## O=[N+]([O-])c1cccc2c[n+](Cc3ccc(Br)cc3)ccc12
[4]
  T/C: 134 % of control
dose: 50.0 mg/kg/injection, schedule: Q01DX009 (ip), vehicle: saline with Tween-80
  survivor count: 3 of 6

## N=c1ccc2nc3ccc(N)cc3sc-2c1
[5]
  T/C: 140 % of control
dose: 50.0 mg/kg/injection, schedule: Q01DX009 (ip), vehicle: saline
  T/C: 125 % of control
dose: 100.0 mg/kg/injection, schedule: Q01DX009 (ip), vehicle: saline
  survivor count: 4 of 6
dose: 100.0 mg/kg/injection, schedule: Q04DX003 (ip), vehicle: saline
  T/C: 131 % of control
dose: 200.0 mg/kg/injection, schedule: Q04DX003 (ip), vehicle: saline
  survivor count: 6 of 6

## CCCC(C)(C)c1cc(C(C)C)cc(C(C)(C)CCC)c1O
dose: 50.0 mg/kg/injection, schedule: Q01DX009 (ip), vehicle: other
  T/C: 127 % of control
dose: 100.0 mg/kg/injection, schedule: Q01DX009 (ip), vehicle: other
  survivor count: 6 of 6
dose: 200.0 mg/kg/injection, schedule: Q01DX009 (ip), vehicle: other
  survivor count: 3 of 6

## COc1ccc(C(SCC(N)C(=O)O)(c2ccccc2)c2ccccc2)cc1 (stereo unspecified)
dose: 3.12 mg/kg/injection, schedule: Q01DX009 (ip), vehicle: Klucel (hydroxypropylcellulose) (HPC)
  T/C: 141 % of control [5 of 6 alive]
dose: 4.12 mg/kg/injection, schedule: Q01DX009 (ip), vehicle: Klucel (hydroxypropylcellulose) (HPC)
  T/C: 136 % of control
dose: 12.5 mg/kg/injection, schedule: Q01DX009 (ip), vehicle: Klucel (hydroxypropylcellulose) (HPC)
  T/C: 145 % of control
dose: 22.0 mg/kg/injection, schedule: Q04DX003 (ip), vehicle: Klucel (hydroxypropylcellulose) (HPC)
  T/C: 145 % of control
[10]
  survivor count: 6 of 6
dose: 50.0 mg/kg/injection, schedule: Q01DX009 (ip), vehicle: Klucel (hydroxypropylcellulose) (HPC)
  survivor count: 3 of 6
[8]
  survivor count: 0 of 6 and 6 of 6
[1]
  survivor count: 4 of 6
dose: 150.0 mg/kg/injection, schedule: Q04DX003 (ip), vehicle: Klucel (hydroxypropylcellulose) (HPC)
  survivor count: 1 of 6
[2]
  survivor count: 5 of 6 and 6 of 6

## CN/N=C/c1cccnc1
[6]
  survivor count: 6 of 6
[11]
  survivor count: 1 of 6

## O=C(NC(=O)C(F)(F)C(F)(F)F)Nc1cccc(F)c1
[10]
  survivor count: 6 of 6

## O=C1NC(=O)C(CSCc2ccccc2)(CSCc2ccccc2)N1
[11]
  survivor count: 6 of 6

## CCCCOCN(COCCCC)C(C)(C)C
dose: 400.0 mg/kg/injection, schedule: Q01DX001 (ip), vehicle: saline
  survivor count: 0 of 6

— PubChem BioAssay AID328 (DTP/NCI, 2004)
